Laboratory results taken from paper PMC9663433.

By UniProt entry, the sequences of proteins in these tests, tags left out. Where a name states a change or a piece, a line headed by the entry shows the natural chain unless it says otherwise.
UniProt Q9NZQ7: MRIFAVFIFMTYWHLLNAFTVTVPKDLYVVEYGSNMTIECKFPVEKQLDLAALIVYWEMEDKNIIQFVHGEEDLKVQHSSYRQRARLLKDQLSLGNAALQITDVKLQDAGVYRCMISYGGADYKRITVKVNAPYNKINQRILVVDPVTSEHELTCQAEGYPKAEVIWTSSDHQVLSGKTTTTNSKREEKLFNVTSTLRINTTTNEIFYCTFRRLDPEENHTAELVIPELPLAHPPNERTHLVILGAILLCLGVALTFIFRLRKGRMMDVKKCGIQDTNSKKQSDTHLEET
UniProt Q7Z6Z7: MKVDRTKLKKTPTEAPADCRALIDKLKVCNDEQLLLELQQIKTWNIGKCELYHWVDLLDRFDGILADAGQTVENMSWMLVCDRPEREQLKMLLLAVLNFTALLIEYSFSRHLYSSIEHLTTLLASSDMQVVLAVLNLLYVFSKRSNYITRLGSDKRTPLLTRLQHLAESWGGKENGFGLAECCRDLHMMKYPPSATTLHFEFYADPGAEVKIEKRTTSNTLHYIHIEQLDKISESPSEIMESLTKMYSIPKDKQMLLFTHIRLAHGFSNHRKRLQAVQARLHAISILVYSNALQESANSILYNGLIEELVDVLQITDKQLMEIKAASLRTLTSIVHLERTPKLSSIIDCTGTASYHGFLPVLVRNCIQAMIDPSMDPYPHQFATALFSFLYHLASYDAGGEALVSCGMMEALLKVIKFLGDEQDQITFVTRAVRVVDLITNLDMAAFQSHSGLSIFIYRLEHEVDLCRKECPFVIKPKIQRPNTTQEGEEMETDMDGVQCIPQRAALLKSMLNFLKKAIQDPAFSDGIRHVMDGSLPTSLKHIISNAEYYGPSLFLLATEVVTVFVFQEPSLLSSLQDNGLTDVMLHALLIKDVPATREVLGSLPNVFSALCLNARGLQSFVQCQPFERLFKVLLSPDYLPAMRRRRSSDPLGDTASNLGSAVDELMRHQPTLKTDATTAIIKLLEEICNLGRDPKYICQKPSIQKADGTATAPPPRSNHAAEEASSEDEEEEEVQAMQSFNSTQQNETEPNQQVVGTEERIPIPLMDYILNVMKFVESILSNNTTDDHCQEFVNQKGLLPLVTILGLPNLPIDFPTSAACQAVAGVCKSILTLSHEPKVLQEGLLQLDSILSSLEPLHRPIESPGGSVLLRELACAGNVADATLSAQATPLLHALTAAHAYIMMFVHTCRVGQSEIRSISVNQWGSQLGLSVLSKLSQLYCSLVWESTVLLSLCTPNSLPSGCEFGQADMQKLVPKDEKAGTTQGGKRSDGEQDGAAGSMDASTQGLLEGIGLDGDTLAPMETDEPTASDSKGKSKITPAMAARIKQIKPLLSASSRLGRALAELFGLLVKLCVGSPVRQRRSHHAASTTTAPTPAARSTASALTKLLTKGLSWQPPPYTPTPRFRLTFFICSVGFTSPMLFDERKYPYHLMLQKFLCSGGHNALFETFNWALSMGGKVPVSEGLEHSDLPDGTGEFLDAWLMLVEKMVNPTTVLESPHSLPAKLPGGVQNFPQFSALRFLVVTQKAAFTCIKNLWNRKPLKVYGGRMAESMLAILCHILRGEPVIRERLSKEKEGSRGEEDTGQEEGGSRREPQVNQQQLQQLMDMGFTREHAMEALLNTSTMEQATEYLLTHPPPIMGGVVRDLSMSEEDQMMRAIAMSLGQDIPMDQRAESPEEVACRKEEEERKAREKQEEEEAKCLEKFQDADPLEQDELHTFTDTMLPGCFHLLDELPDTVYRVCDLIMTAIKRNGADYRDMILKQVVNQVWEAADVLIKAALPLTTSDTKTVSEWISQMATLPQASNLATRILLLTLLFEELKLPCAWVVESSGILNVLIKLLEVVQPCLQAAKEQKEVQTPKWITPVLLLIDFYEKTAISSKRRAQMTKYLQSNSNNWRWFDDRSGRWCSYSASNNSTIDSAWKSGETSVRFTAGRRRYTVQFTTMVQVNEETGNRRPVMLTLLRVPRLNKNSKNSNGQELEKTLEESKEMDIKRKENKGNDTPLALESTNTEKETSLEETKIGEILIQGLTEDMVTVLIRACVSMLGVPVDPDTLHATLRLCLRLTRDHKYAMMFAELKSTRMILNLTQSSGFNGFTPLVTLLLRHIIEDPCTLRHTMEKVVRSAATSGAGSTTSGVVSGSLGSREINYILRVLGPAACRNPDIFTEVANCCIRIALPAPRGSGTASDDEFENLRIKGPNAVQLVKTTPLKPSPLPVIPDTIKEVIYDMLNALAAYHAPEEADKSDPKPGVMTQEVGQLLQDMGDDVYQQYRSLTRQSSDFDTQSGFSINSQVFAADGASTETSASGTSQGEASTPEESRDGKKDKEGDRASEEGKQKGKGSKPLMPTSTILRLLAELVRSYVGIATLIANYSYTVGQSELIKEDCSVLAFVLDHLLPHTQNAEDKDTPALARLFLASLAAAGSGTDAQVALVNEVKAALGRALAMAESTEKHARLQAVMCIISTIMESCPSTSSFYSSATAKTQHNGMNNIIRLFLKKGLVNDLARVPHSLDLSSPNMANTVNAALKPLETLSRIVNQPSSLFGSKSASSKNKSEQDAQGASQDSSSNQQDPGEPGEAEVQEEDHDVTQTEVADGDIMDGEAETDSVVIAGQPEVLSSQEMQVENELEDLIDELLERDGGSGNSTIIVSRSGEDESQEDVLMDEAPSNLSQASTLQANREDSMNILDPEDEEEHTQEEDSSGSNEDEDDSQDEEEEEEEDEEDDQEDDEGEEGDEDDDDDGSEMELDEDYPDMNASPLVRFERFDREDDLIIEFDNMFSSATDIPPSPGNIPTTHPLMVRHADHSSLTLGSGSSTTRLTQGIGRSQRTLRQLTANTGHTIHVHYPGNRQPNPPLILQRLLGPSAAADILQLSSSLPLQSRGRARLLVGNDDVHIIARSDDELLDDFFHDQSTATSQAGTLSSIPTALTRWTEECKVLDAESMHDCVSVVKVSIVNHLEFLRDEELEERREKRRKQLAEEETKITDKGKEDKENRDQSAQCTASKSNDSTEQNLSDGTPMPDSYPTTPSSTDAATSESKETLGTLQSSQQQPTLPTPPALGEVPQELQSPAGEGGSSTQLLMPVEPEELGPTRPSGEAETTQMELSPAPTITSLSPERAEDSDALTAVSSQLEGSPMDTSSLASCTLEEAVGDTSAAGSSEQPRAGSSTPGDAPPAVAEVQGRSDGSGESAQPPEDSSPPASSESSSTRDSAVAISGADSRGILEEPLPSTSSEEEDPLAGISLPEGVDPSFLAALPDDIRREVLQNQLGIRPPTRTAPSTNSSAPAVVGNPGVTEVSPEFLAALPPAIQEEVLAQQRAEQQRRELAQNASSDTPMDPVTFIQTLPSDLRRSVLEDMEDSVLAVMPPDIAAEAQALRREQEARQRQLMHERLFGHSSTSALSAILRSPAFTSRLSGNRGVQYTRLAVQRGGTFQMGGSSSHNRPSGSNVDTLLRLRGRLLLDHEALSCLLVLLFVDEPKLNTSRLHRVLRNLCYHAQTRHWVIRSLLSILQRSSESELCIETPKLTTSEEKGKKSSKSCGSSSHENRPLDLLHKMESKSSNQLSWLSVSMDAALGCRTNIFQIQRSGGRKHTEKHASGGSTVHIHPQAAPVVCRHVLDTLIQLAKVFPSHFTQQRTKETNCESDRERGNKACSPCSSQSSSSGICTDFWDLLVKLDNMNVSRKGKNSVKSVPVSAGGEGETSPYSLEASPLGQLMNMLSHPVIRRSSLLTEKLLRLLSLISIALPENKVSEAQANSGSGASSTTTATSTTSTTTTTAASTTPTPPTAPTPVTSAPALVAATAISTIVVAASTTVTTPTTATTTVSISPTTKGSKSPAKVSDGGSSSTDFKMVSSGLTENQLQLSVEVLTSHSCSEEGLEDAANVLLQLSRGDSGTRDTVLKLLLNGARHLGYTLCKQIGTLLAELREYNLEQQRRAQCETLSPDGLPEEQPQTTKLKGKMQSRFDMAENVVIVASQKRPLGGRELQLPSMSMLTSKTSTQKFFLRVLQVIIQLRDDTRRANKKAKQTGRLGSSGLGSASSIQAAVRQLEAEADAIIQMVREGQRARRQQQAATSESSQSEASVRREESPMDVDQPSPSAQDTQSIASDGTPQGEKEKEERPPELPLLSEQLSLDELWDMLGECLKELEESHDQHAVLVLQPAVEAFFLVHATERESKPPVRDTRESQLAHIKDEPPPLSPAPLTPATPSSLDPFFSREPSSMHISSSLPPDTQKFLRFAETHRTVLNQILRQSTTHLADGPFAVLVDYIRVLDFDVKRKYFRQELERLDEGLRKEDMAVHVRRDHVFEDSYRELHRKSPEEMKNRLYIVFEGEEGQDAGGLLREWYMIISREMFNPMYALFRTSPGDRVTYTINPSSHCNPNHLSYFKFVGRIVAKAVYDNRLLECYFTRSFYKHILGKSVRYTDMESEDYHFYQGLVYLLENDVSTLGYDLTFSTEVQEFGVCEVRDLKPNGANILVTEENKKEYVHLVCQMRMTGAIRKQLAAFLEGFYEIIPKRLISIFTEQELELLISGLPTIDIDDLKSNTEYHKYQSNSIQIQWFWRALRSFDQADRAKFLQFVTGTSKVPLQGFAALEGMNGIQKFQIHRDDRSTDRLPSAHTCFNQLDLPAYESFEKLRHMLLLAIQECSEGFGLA
UniProt Q9BVT8: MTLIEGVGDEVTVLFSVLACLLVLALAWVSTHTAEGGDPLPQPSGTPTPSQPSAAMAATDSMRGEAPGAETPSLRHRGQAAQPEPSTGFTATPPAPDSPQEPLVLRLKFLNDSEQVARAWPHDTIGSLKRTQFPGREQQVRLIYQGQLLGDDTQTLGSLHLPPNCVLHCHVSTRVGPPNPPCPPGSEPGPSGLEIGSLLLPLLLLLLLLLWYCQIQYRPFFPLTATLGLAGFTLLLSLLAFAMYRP

How the values were obtained:
[1] = target: GST-tagged PD-L1 (human) (UniProt Q9NZQ7); experiment: pull-down; GST-PD-L1 and His-tagged TMUB1 from E. coli incubated with HUWE1-Flag obtained from HEK-293T cells; GST magnetic beads; immunoblot (Supplementary Fig. 4p); both purified
[2] = target: GST-tagged PD-L1 (human) (UniProt Q9NZQ7); experiment: pull-down; GST pull-down of recombinant PD-L1-GST and TMUB1-His with or without PTPR; immunoblot (Fig. 6h); both purified

Row | Molecule | binding [1] | binding [2]
1 | HUWE1-Flag (from UniProt Q7Z6Z7 1-4374) (enzyme) | binds | 
2 | GFTATPPAPDSPQEP (peptide, UniProt Q9BVT8 88-102, FITC (position not given)) [PTPR (Peptide of TMUB1 PD-L1 Regulatory domain)] |  | binds

Results are given in words; binding and its absence hold for the method and conditions named. A result given as binding can be weak or reduced; the word gives no strength.
